No constants are given. Whether binding was seen depends on the method and setting. Binding seen in cells or lysates may run through a third protein. Some binding calls cover weakened binding; strength is not graded here. Sequences can lack the tags named with a protein.
How the values were obtained:
[1] = biological target: T1, wingless (Wg) protein (Drosophila) (UniProt P09615); test: pull-down, gel electrophoresis and fluorography
T1 sequence (looked up): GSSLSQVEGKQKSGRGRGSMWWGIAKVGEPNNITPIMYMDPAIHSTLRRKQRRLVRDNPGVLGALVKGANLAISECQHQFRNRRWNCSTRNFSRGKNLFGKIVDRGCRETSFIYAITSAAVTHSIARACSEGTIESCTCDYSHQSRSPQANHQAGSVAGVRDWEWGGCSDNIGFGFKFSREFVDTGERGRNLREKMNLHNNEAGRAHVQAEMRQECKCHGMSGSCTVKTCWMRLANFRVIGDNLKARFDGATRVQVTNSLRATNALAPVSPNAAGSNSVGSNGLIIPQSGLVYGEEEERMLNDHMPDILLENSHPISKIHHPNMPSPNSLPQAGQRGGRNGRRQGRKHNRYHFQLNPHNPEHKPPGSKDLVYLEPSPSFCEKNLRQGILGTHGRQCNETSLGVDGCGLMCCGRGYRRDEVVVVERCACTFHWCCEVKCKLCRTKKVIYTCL

[2] = biological target: T1, wingless (Wg) protein (Drosophila); test: pull-down from 35S-labeled HS-wg/S2 conditioned medium with sepharose-Protein A beads, gel electrophoresis and fluorography
[3] = biological target: T1, wingless (Wg) protein (Drosophila); test: pull-down and fluorography, figure legend of FIG. 6

Measured: binding

B1: Dfz2/IgG fusion protein (cysteine-rich amino-terminal domain of Dfz2 linked to the constant domain of human IgG) (Fc fusion, not shown: a dimerising Fc or GST)
chain: DGPLHSADHGMGGMGMGGHGLDASPAPGYGVPAIPKDPNLRCEEITIPMCRGIGYNMTSFPNEMNHETQDEAGLEVHQFWPLVEIKCSPDLKFFLCSMYTPICLEDYHKPLPVCRSVCERARSGCAPIMQQYSFEWPERMACEHLPLHGDPDNLCMEQ
binds: [1] | [2] | [3]

Source: US20070269808A1 (published 2007)
